Taken from: PubChem BioAssay AID1259405 (NCATS, 2018)

Screen: 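Mouse-designed siRNAs used to find CHO productivity engineering targets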 (primary screen)
System: Chinese hamster CHO-K1 ovary cells with stable secreted eGFP expression
Knock-down reagent: single siRNA against mouse genes, 0.8 pmol siRNA per well (2 µl of 400 nM stock)
Time to read-out: 3 days
Measured: 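Per-well intracellular GFP measured by laser scanning cytometry, plus viability from ATP luminescence, each relative to plate median of non-targeting control wells, in %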
Scale: GFP, % of control: higher = more GFP per well, higher productivity; viability (ATP), % of control: higher = more viable cells (more ATP)
Active means: 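Called active when intracellular GFP, relative to negative control, is at or above 120%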
Here is one part, drawn at random, of about 50,000 reagents tested. In the full data, about 4,000 (8%) are marked active. 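Mouse siRNA library applied to hamster cells; one well for each siRNA.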 Entries without a mark were called inactive. The numbers tell different reagents against one gene apart. No sequences are given here.

{"gene": "Skor1 (GeneID 207667)", "siRNA no.": 1, "GFP, % of control": 72.3, "viability (ATP), % of control": 40.4}
{"gene": "Skor1 (GeneID 207667)", "siRNA no.": 2, "GFP, % of control": 82.6, "viability (ATP), % of control": 57.3}
{"gene": "Skor1 (GeneID 207667)", "siRNA no.": 3, "GFP, % of control": 88.2, "viability (ATP), % of control": 81.9}
{"gene": "Dgkd (GeneID 227333)", "siRNA no.": 1, "GFP, % of control": 114, "viability (ATP), % of control": 96.3}
{"gene": "Rnft1 (GeneID 76892)", "siRNA no.": 1, "GFP, % of control": 81.3, "viability (ATP), % of control": 101}
{"gene": "Rnft1 (GeneID 76892)", "siRNA no.": 2, "GFP, % of control": 50.9, "viability (ATP), % of control": 55.6}
{"gene": "Rnft1 (GeneID 76892)", "siRNA no.": 3, "GFP, % of control": 43.8, "viability (ATP), % of control": 33.5}
{"gene": "Vmn1r18 (GeneID 171199)", "siRNA no.": 1, "GFP, % of control": 87.2, "viability (ATP), % of control": 71}
{"gene": "Vmn1r18 (GeneID 171199)", "siRNA no.": 2, "GFP, % of control": 111, "viability (ATP), % of control": 55.8}
{"gene": "Vmn1r18 (GeneID 171199)", "siRNA no.": 3, "GFP, % of control": 98.1, "viability (ATP), % of control": 111}
{"gene": "Igfals (GeneID 16005)", "siRNA no.": 1, "GFP, % of control": "131 (active)", "viability (ATP), % of control": 134}
{"gene": "Igfals (GeneID 16005)", "siRNA no.": 2, "GFP, % of control": 53.7, "viability (ATP), % of control": 65.5}
{"gene": "Igfals (GeneID 16005)", "siRNA no.": 3, "GFP, % of control": 50.9, "viability (ATP), % of control": 69.8}
{"gene": "Gdf6 (GeneID 242316)", "siRNA no.": 1, "GFP, % of control": 66.8, "viability (ATP), % of control": 64.7}
{"gene": "Gdf6 (GeneID 242316)", "siRNA no.": 2, "GFP, % of control": 55.8, "viability (ATP), % of control": 24.8}
{"gene": "Gdf6 (GeneID 242316)", "siRNA no.": 3, "GFP, % of control": 70.4, "viability (ATP), % of control": 77.3}
